Reference: PubChem BioAssay AID1347076 (National Center for Advancing Translational Sciences (NCATS), 2019)
Hit rate of the full screen: of about 400,000 compounds, about 13,000 (3.2%) were called active. The inconclusive results got no clear call from the source; some entries with a clear call stand among them for comparison. Calls come from the whole dose curve; as a rule, active = well fitted cell-killing curve with a large enough effect; inconclusive = small, poorly fitted or top-dose-only effect, or effect the other way; inactive = flat fitted curve, though single readings scatter. A potency beside an inconclusive call is a rough fit, not a confirmed value.

Experiment: qHTS assay for MDR1-selective chemotherapeutics: Primary screen using the drug-selected MDR subline cells KB-V1; note: nearly all actives have a fitted effect of over 60% in size
Settings: KB-V1 MDR cells viability, CellTiter-Glo, 72 h; activity change, negative = cytotoxicity: at 46.1 µM (top of the series)
Outline: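 Following 72 h at 37 degrees C with compound, KB-V1 cell viability was read by CellTiter-Glo luminescence, medium being phenol-red-free DMEM plus 10% FBS; concentration-response parameters came from normalized, curve-fitted qHTS data.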
% is set by controls: 0 for no effect and ±100 for the full control effect; potency is the fitted concentration of half-maximal effect.

SMILES	Potency	activity change, negative = cytotoxicity
Cc1ccc(-c2noc(CCC(=O)Nc3ccccc3C)n2)cc1	active: 16.4 µM	
Cc1ccc(C2(c3noc(CN(C)Cc4cnn(C)c4)n3)CCCC2)cc1	inconclusive: 7.31 µM [cytotoxic, partial curve]	
N#Cc1ccccc1S(=O)(=O)N1CCN(C(=O)C2CCC2)CC1		inactive: -0.697%
CCOc1cccc(-c2nnc3sc(C4CCCCC4)nn23)c1	inconclusive: 16.4 µM [cytotoxic, single point]	
N#CCCn1cc(/C=N/O)c(-c2ccc(-c3ccccc3)cc2)n1		inactive: -34.5%
COc1ccc(CN(CCC(c2ccc(F)cc2)C2CCOC(C)(C)C2)C(=O)c2ccco2)cc1 (stereo not given)	inconclusive: 18.4 µM [cytotoxic, single point]	
C#Cc1ccc([C@@H]2C=C(C(=O)N3CCN(Cc4ccc5c(c4)OCO5)CC3)O[C@H](OCCCCO)C2)cc1		inactive: -1.11%
CCOC(=O)c1sc(Nc2nc3c(OC)cccc3s2)cc1C	inconclusive: 16.4 µM [cytotoxic, single point]	
Cc1cc(C)c(OCC(=O)N(Cc2cccs2)C2CCS(=O)(=O)C2)c(C)c1 (stereo not given)	inconclusive: 5.8 µM [cytotoxic, full curve]	
Cc1cc2nc(C3CCN(Cc4nnnn4Cc4ccccc4)CC3)[nH]c2cc1C	inconclusive: 20.6 µM [cytotoxic, partial curve, poor fit]	
COC(=O)c1cc(S(=O)(=O)N2CCN(c3ccc(C)cc3C)CC2)cn1C	inconclusive: 29.1 µM [rising, single point]	
COc1cc(SC)ccc1C(=O)N(Cc1ccccc1)c1ccccn1		inactive: -22.8%
CCC(NC(=O)c1cncc(Br)c1)c1ccccc1 (stereo not given)	inconclusive: 16.4 µM [cytotoxic, single point]	
Cc1ccc2nnn(Cc3cccc(C(C)(C)C)c3O)c2c1	inconclusive: 18.4 µM [cytotoxic, single point]	
COc1ccc(-c2cc(C(F)(F)F)nc(S(=O)(=O)CCC(=O)N3CCOCC3)n2)cc1	inconclusive: 29.1 µM [cytotoxic, single point]	
Cc1cc(N2CCN(C(=O)c3ccco3)CC2)n2ncc(-c3ccccc3)c2n1		inactive: -17.8%
COc1ccc2[nH]c3c(NCc4ccco4)ncnc3c2c1	inconclusive: 18.4 µM [cytotoxic, single point]	
CC(C)C(CC(=O)N1CCCCC1)C1CCOC(C)(C)C1 (stereo not given)	inconclusive: 23.1 µM [cytotoxic, partial curve, poor fit]	
CC(C)Oc1ccc(CNC(=O)C2COc3ccccc3C2)cc1 (stereo not given)		inactive: 0.115%
COc1ccc(CC(=O)OCC(=O)N(CC(C)C)c2c(N)n(Cc3ccccc3)c(=O)[nH]c2=O)cc1	inconclusive: 18.4 µM [rising, single point]	
CCOC(=O)C1(Cc2ccccc2C(F)(F)F)CCN(Cc2ccon2)CC1	inconclusive: 4.61 µM [cytotoxic, full curve]	
CCN(CC)CCNC(=O)c1ccc(NC(=O)c2cc(S(=O)(=O)N3CCCCC3)ccc2N2CCOCC2)cc1	inconclusive: 8.2 µM [rising, partial curve, poor fit]	
CC1CCCCC1NC(=O)COc1ccccc1C#N (stereo not given)		inactive: -24.6%

SMILES	Potency	activity change, negative = cytotoxicity
CCCCCCOc1ccc(-c2nc3ccc(Br)cc3c(=O)o2)cc1		inactive: 0%
COc1ccc(-c2noc(-c3ccc(N4CCCCC4)c([N+](=O)[O-])c3)n2)cc1	inconclusive: 25.9 µM [rising, partial curve, poor fit]	
Cc1cc(C(=O)COc2ccccc2[N+](=O)[O-])c(C)n1C1CC1	inconclusive: 23.1 µM [cytotoxic, partial curve]	
O=C(COC(=O)c1ccc(Br)c(S(=O)(=O)N2CCOCC2)c1)NCCc1ccccc1		inactive: -20%
CCOc1ccc(C2c3c(oc4ccc(C)cc4c3=O)C(=O)N2c2nc(C)c(C)s2)cc1OC (stereo not given)		inactive: -6.84%
CN=C1c2cc3cc(OC)ccc3n2CCN1Cc1ccccc1	active: 16.4 µM	
COc1ccc(CCNC(=O)c2c(C)nc3ccccn23)cc1	inconclusive: 29.1 µM [cytotoxic, single point]	
COc1ccc(Cc2noc(-c3ccc(OC)c(OC)c3)n2)cc1OC	active: 11.6 µM	
CC(=O)Nc1ccc(CC(=O)NCCC(c2ccccc2)c2ccccc2)cc1		inactive: -2.25%
c1ccc(-c2nnc3sc(-c4csc5c4CCCC5)nn23)cc1	inconclusive: 14.6 µM [cytotoxic, partial curve, poor fit]	
COc1ccccc1CNC(=O)CN(C)S(=O)(=O)c1ccc2c(c1)n(C)c(=O)c(=O)n2C	inconclusive: 23.1 µM [rising, single point]	
CSc1ccc(CN(C)C(=O)CNC(=O)c2ccc3c(c2)OCO3)cc1	active: 20.6 µM	
CC(=O)Nc1ccc(S(=O)(=O)N2CCSC2c2ccc(Cl)cc2)cc1 (stereo not given)	inconclusive: 20.6 µM [cytotoxic, single point]	
CN(C)CCCn1c(=O)n(Cc2ccccc2)c(=O)c2c3c(sc21)CCCCC3	inconclusive: 10.3 µM [cytotoxic, partial curve, poor fit]	
Cc1ccc2sc(N(CCCN(C)C)C(=O)c3ccc(S(=O)(=O)N(C)C4CCCCC4)cc3)nc2c1C	active: 18.4 µM	
O=S(=O)(NCc1cccnc1)c1ccc(Br)s1	inconclusive: 29.1 µM [cytotoxic, single point]	
Cc1ccccc1Nc1nc(N)nc(COC(=O)c2cccc(S(=O)(=O)N(C)C)c2)n1	active: 18.4 µM	
CC(=O)OCCSc1c(-c2ccccc2)c2cc(Cl)ccc2[nH]c1=O	active: 23.1 µM	
CCc1cc2c(SCC(=O)Nc3ccc(NC(C)=O)cc3)ncnc2s1		inactive: -10.7%
CCOC1=C2[C@@H](CN(S(=O)(=O)c3ccc(C)cc3)[C@H]2c2cccs2)[C@H]2C(=O)N(c3ccccc3)C(=O)[C@H]2C1		inactive: -1.19%
C/C(=N\Nc1ncc(Cl)cc1Cl)c1ccc(OC(F)F)cc1	inconclusive: 20.6 µM [cytotoxic, partial curve, poor fit]	
Cc1cccc(C(=O)Nc2ccccc2SCC(=O)Nc2ccc(C)c(Cl)c2)c1	inconclusive: 18.4 µM [cytotoxic, partial curve, poor fit]	

Fetched by structure from the entries so far (2):
SMILES	Potency	activity change, negative = cytotoxicity
COc1ccc(CCNC(=O)c2c(C)nc3ccccn23)cc1	inconclusive: 29.1 µM [cytotoxic, single point]	
CN(C)CCCn1c(=O)n(Cc2ccccc2)c(=O)c2c3c(sc21)CCCCC3	inconclusive: 10.3 µM [cytotoxic, partial curve, poor fit]	
